Reference: PubChem BioAssay AID1259308 (NCATS, 2017)
Here is an unselected part of about 59,000 reagents tested. About 1,510 of all reagents (2.6%) count as active. 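Calls use total luciferase alone and ignore viability, so some active siRNAs may act by altering cell number.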 Unmarked entries are inactive. Reagents against one gene are numbered here. Further read-outs or replicates are left out here.

Assay: 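Candidate targets for better recombinant protein yield in mammalian cells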 (primary screen)
System: human HEK293 embryonic kidney cells stably expressing firefly luciferase (HEK-CMV-Luc2-Hygro)
Reagents: single siRNA against human genes, 0.8 pmol siRNA per well
Timing: 72 h
Measurement: 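Luciferase light (ONE-Glo) measured on one replicate plate set and viability (CellTiter-Glo) on the other, scaled to a negative control siRNA, with robust z-scores and luciferase per cell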
Reading the numbers: total luciferase, z-score and total luciferase, % of control: higher = more reporter protein produced
Hit rule: 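An siRNA counts as active if its total luciferase robust z-score exceeds 3; genes with two or more such siRNAs out of three were retested with fresh siRNAs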
Calls: active = raised luciferase; inactive = no rise

TIMM10B (translocase of inner mitochondrial membrane 10B) #1 showed total luciferase, z-score 0.38; total luciferase, % of control 89.4. With knock-down of TIMM10B (translocase of inner mitochondrial membrane 10B) #2 the results were total luciferase, z-score -1.12; total luciferase, % of control 59.7. Depletion of TIMM10B (translocase of inner mitochondrial membrane 10B) #3 came out at: total luciferase, z-score -0.58; total luciferase, % of control 70.4. NIT1 (nitrilase 1) #1 gave total luciferase, z-score -0.2; total luciferase, % of control 77.9. NIT1 (nitrilase 1) #2 gave total luciferase, z-score 1.42; total luciferase, % of control 110. For NIT1 (nitrilase 1) #3, the entry reads total luciferase, z-score 0.561; total luciferase, % of control 93.

With knock-down of PCDHB8 (protocadherin beta 8) #1 the results were total luciferase, z-score 0.998; total luciferase, % of control 102. Against PCDHB8 (protocadherin beta 8) #2, the entry reads total luciferase, z-score -0.488; total luciferase, % of control 72.2. For PCDHB8 (protocadherin beta 8) #3, the values are total luciferase, z-score 0.0979; total luciferase, % of control 83.8. CNOT6 (CCR4-NOT transcription complex subunit 6) #1 showed total luciferase, z-score 0.373; total luciferase, % of control 89.3. Silencing of CNOT6 (CCR4-NOT transcription complex subunit 6) #2 resulted in: total luciferase, z-score -0.558; total luciferase, % of control 70.8. With knock-down of CNOT6 (CCR4-NOT transcription complex subunit 6) #3, the screen gave total luciferase, z-score 0.578; total luciferase, % of control 93.4.

ZNF497 (zinc finger protein 497) #1 gave total luciferase, z-score 1.2; total luciferase, % of control 106. Against ZNF497 (zinc finger protein 497) #2, the entry reads total luciferase, z-score -1.34; total luciferase, % of control 55.1. ZNF497 (zinc finger protein 497) #3 showed total luciferase, z-score -0.569; total luciferase, % of control 70.6. Silencing of ALKAL2 (ALK and LTK ligand 2) #1 resulted in: total luciferase, z-score -0.254; total luciferase, % of control 76.8. With knock-down of ALKAL2 (ALK and LTK ligand 2) #2, the record shows total luciferase, z-score 0.513; total luciferase, % of control 92.1. With knock-down of ALKAL2 (ALK and LTK ligand 2) #3 the results were total luciferase, z-score 2.04; total luciferase, % of control 122.

IFITM2 (interferon induced transmembrane protein 2) #1 showed total luciferase, z-score 0.605; total luciferase, % of control 93.9. With knock-down of IFITM2 (interferon induced transmembrane protein 2) #2, the record shows total luciferase, z-score -1.97; total luciferase, % of control 42.7. For IFITM2 (interferon induced transmembrane protein 2) #3, the entry reads total luciferase, z-score 1.87; total luciferase, % of control 119. After knock-down of HDAC11 (histone deacetylase 11) #1, the record shows total luciferase, z-score -1.63; total luciferase, % of control 49.4. After knock-down of HDAC11 (histone deacetylase 11) #2, the screen gave total luciferase, z-score 0.446; total luciferase, % of control 90.7. HDAC11 (histone deacetylase 11) #3 scored total luciferase, z-score 0.0857; total luciferase, % of control 83.6.

Silencing of TPRKB (TP53RK binding protein) #1 came out at: total luciferase, z-score -0.438; total luciferase, % of control 73.2. With knock-down of TPRKB (TP53RK binding protein) #2 the results were total luciferase, z-score -0.695; total luciferase, % of control 68.1. For TPRKB (TP53RK binding protein) #3, the entry reads total luciferase, z-score -0.379; total luciferase, % of control 74.3. With knock-down of SLC22A25 #1, the screen gave total luciferase, z-score -0.65; total luciferase, % of control 69. Against SLC22A25 #2, the entry reads total luciferase, z-score -1.08; total luciferase, % of control 60.4. After knock-down of SLC22A25 #3, the screen gave total luciferase, z-score 1.29; total luciferase, % of control 108.

MTMR9 (myotubularin related protein 9) #1 scored total luciferase, z-score -0.654; total luciferase, % of control 68.9. After knock-down of MTMR9 (myotubularin related protein 9) #2, the screen gave total luciferase, z-score -0.916; total luciferase, % of control 63.7. Silencing of MTMR9 (myotubularin related protein 9) #3 came out at: total luciferase, z-score -0.266; total luciferase, % of control 76.6.
